Laboratory results taken from the supplement of paper PMC10338343.
± gives the standard deviation. The entries are a selection whose mix differs from that of the whole data set. The uncertainty is large for many entries. This is one part of the list.

Legend:
[1] = test system: MIWI (PIWIL1) piRISC loaded with L1MC piRNA (30 nt); test: pre-steady-state target cleavage rate (min^-1); higher = faster piRNA-guided slicing of the target; settings: guide: L1MC piRNA 5'p-UAACUAAAUACUAUGCAAGCUGUAGGUCCU
Procedure, shortened: (§1)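 At 33 °C in HEPES–potassium acetate buffer, a transcribed, DNA-blocked target RNA library […] was exposed for 0–8 or 0–960 min to 1 nM active affinity-purified piRISC carrying a single synthetic guide, with or without 500 nM GTSF1 partner protein. Uncleaved targets were sequenced and normalised to depth and to weakly complementary targets. With three trials pooled and k3 capped at 0.0001 min^-1, a burst-and-steady-state fit produced the pre-steady-state cleavage rate.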

[2] = test system: EfPiwi piRISC loaded with L1MC piRNA (26 nt); test: pre-steady-state target cleavage rate (min^-1); guide: L1MC piRNA 5'p-UAACUAAAUACUAUGCAAGCUGUAGG; higher = faster piRNA-guided slicing of the target
Procedure, shortened: as §1

[3] = test system: MILI (PIWIL2) piRISC loaded with L1MC piRNA (26 nt); test: pre-steady-state target cleavage rate (min^-1); MIWI and MILI are mouse PIWI proteins and EfPiwi is from a freshwater sponge; tags in brackets are library labels; higher = faster piRNA-guided slicing of the target; settings: guide: L1MC piRNA 5'p-UAACUAAAUACUAUGCAAGCUGUAGG
Procedure, shortened: as §1

[4] = auxiliary factor: 500 nM mouse GTSF1
[5] = auxiliary factor: none (no GTSF1)
[6] = auxiliary factor: 500 nM Ephydatia muelleri Gtsf1
[7] = auxiliary factor: none (no Gtsf1)

Row | Sequence | pre-steady-state target cleavage rate [1, 4] | pre-steady-state target cleavage rate [1, 5] | pre-steady-state target cleavage rate [2, 6] | pre-steady-state target cleavage rate [2, 7] | pre-steady-state target cleavage rate [3, 5] | pre-steady-state target cleavage rate [3, 4]
1 | UCCUGGAUGUCGUUGCAUAGAUUUAGUUA | 0.000459 ± 0.018 | 0.00142 ± 0.005 | 0.0004 ± 0.0067 | < 0.0001 |  | 
2 | UCCUGGAUGUGCUUCCAUAGUAUUUUGUUA | 0.00359 ± 0.0053 | 0.000441 ± 0.017 | 0.00071 ± 0.0055 | 0.000339 ± 0.025 |  | 
3 | UCCUGGAUGUGGUUGCAUAGUAUUUAGAAA | 0.00192 ± 0.0091 | 0.000474 ± 0.012 | 0.00115 ± 0.0082 | 0.00155 ± 0.0085 |  | 
4 | UCCUGGAUGUCGUAGCAUAGUAUUUAGUUA | 0.0153 ± 0.005 | 0.00137 ± 0.0052 | 0.00385 ± 0.0025 | 0.000651 ± 0.01 |  | 
5 | UCCUGGAUGUCCUUGCAUAGGUAUUUAGUUA | 0.00285 ± 0.004 | 0.00199 ± 0.0047 | 0.00127 ± 0.0048 | 0.000273 ± 0.024 |  | 
6 | UCCUGCUACAGCUUGCAUAGUAAUUAGUAA |  |  | 0.00441 ± 0.0018 |  | 0.00127 ± 0.0044 | 
7 | UCCUGGUACUGCAUGCAUAGUAUUUAGUUA | 0.556 ± 0.045 | 0.00786 ± 0.0024 | 0.0111 ± 0.0032 | 0.00207 ± 0.0062 |  | 
8 | UCCUGCUACACGAUGCAUAGUAUUUAGUAA | 0.396 ± 0.032 | 0.003 ± 0.0038 | 0.00352 ± 0.0024 | 0.00026 ± 0.021 |  | 
9 | UCCUGGAUGUGGAUGCAUAGUAUUUAGUAA | 0.00318 ± 0.0036 | 0.00157 ± 0.0063 | 0.00172 ± 0.0032 | 0.00016 ± 0.042 |  | 
10 | UCCUGGAACAGCUUGCAUACUAUAUAGUUA |  |  | 0.00193 ± 0.0026 |  | 0.00205 ± 0.0037 | 
11 | UCCUGGAUGUCGAUGCAUAGUAAUAAGUUA |  |  | 0.00124 ± 0.0061 |  | 0.00102 ± 0.0074 | 
12 | UCCUGCUACAGCUUGCAAAGUAUUUAGAUA |  |  | 0.00421 ± 0.0024 |  | 0.000874 ± 0.0083 | 
13 | UCCUGGUACAGCUAGCAUAGUAUUAAGUUA | 0.378 ± 0.051 | 0.00772 ± 0.0027 | 0.00476 ± 0.0024 | 0.000964 ± 0.0078 |  | 
14 | UCCUGCUACAGCUUGCAUAGUGUUUAGUUA | 0.648 ± 0.045 | 0.0278 ± 0.0045 | 0.0065 ± 0.0019 | 0.000362 ± 0.017 |  | 
15 | UCCUGGAUGAGGAAGCAUAGUAUUUAGUAA | 0.00364 ± 0.0038 | 0.00153 ± 0.0042 | 0.000423 ± 0.011 | 0.000156 ± 0.022 |  | 
16 | UCCUGGAUGUCGUUGCAGAGUAUUUAGUUA | 0.00128 ± 0.008 | 0.00122 ± 0.0069 | 0.00107 ± 0.0058 | 0.000417 ± 0.024 |  | 
17 | UCCUGGAUGUCGUUGCAUAGUAUAUUAGUUA | 0.00156 ± 0.006 | 0.0014 ± 0.0072 | 0.00174 ± 0.0049 | 0.000451 ± 0.019 |  | 
18 | UCCUGGAUGUGCUUGCUAAGUAUUUAGUUA | 0.00289 ± 0.0057 | 0.00181 ± 0.0048 | 0.00158 ± 0.0046 | 0.000836 ± 0.012 |  | 

Retrieved one by one from the list above (two):
Row | Sequence | pre-steady-state target cleavage rate [1, 4] | pre-steady-state target cleavage rate [1, 5] | pre-steady-state target cleavage rate [2, 6] | pre-steady-state target cleavage rate [2, 7] | pre-steady-state target cleavage rate [3, 5] | pre-steady-state target cleavage rate [3, 4]
16 | UCCUGGAUGUCGUUGCAGAGUAUUUAGUUA | 0.00128 ± 0.008 | 0.00122 ± 0.0069 | 0.00107 ± 0.0058 | 0.000417 ± 0.024 |  | 
14 | UCCUGCUACAGCUUGCAUAGUGUUUAGUUA | 0.648 ± 0.045 | 0.0278 ± 0.0045 | 0.0065 ± 0.0019 | 0.000362 ± 0.017 |  | 

Additional records follow:

Row | Sequence | pre-steady-state target cleavage rate [1, 4] | pre-steady-state target cleavage rate [1, 5] | pre-steady-state target cleavage rate [2, 6] | pre-steady-state target cleavage rate [2, 7] | pre-steady-state target cleavage rate [3, 5] | pre-steady-state target cleavage rate [3, 4]
19 | UCCUGGAUGAGCUUGCAUAGUUUUAAGUUA | 0.0288 ± 0.0084 | 0.00673 ± 0.0032 | 0.00123 ± 0.0042 | 0.000258 ± 0.042 |  | 
20 | UCCUGGAUGUCGAUGCGUAGUAUUUAGUUA | 0.00103 ± 0.0071 | 0.000921 ± 0.0071 | 0.000457 ± 0.011 | 0.00079 ± 0.0084 |  | 
21 | UCCUGCUACAGCUUGCCUAGUAUUUAGUUA | 0.886 ± 0.057 | 0.0207 ± 0.0037 | 0.00702 ± 0.0018 | 0.000612 ± 0.011 |  | 
22 | UCCUGGAUGUCGUUGCAUAGUAGUUUAGUUA | 0.000647 ± 0.013 | 0.00133 ± 0.0067 | 0.0087 ± 0.005 | 0.0025 ± 0.0048 |  | 
23 | UCCUGGAACAGCUUGCAUUGUAAUUAGUUA | 0.375 ± 0.032 | 0.018 ± 0.006 | 0.00225 ± 0.0022 | 0.000737 ± 0.01 |  | 
24 | UCCUGGAACAGCUUGCUUUGUAUUUAGUUA | 0.0971 ± 0.011 | 0.00848 ± 0.0027 | 0.00396 ± 0.0025 | 0.00182 ± 0.005 |  | 
25 | UCCUGGUACAGCUUACAUAGUAUUUAGUUA | 0.749 ± 0.056 | 0.0246 ± 0.0048 | 0.0283 ± 0.0076 | 0.000699 ± 0.014 |  | 
26 | UCCUGGAUCAGCUUGCAUAGUAUUUACUAA |  |  | 0.0012 ± 0.003 |  | 0.00101 ± 0.0075 | 
27 | UCCUGGAUGUCGUUGGCAUAGUAUUUAGUUA | 0.00315 ± 0.0042 | 0.00114 ± 0.0071 | 0.0014 ± 0.0063 | 0.00015 ± 0.063 |  | 
28 | UCCUGGAUGUGCUUGCGAUAGUAUUUAGUUA | 0.00191 ± 0.0063 | 0.000915 ± 0.01 | 0.00257 ± 0.0027 | 0.00064 ± 0.015 |  | 
29 | UCCUGGAUGUCGAUGGAUAGUAUUUAGUUA | 0.00096 ± 0.0088 | 0.000529 ± 0.012 | 0.000418 ± 0.011 | 0.000593 ± 0.013 |  | 
30 | UCCUGGAUGUCGUUGCAUAGUAGUUAGUUA | 0.000259 ± 0.017 | 0.00158 ± 0.0059 | 0.0019 ± 0.0041 | 0.00386 ± 0.0051 |  | 
31 | UCCUGGAUGUCCUAGCAUAGUUUUUAGUUA | 0.00464 ± 0.0046 | 0.00113 ± 0.0056 | 0.00038 ± 0.0057 | 0.000279 ± 0.024 |  | 
32 | UCCUGGAUGUCCUUGCAUAGAUUUAGUUA | 0.00386 ± 0.0041 | 0.00164 ± 0.0034 | 0.00193 ± 0.0052 | 0.000338 ± 0.015 |  | 
33 | UCCUGGUACAGCUUCGUUAGUAUUUAGAAA | 0.000576 ± 0.012 | 0.00015 ± 0.021 | 0.000281 ± 0.0094 | 0.000216 ± 0.033 |  | 
34 | UCCUGGAUGUCGAUGCAUAGUAUUUAGUAUA | 0.00127 ± 0.0086 | 0.00194 ± 0.0045 | 0.00387 ± 0.0048 | 0.000621 ± 0.015 |  | 
35 | UCCUCCUACAGCUUGCAUUGUAUUUAGAUA |  |  | 0.00539 ± 0.0029 |  | 0.00176 ± 0.0035 | 
36 | UCCUCCUACAGCUUGCAUGGUAUUUAGUUA |  |  | 0.0681 ± 0.02 |  |  | 0.413 ± 0.019
